## Library screening results

The values are deposited in ChEMBL (CHEMBL3988442, “University of Dundee, Small-Polar-MMV Screening Library” (2021)).

The filed quantity is “Percent Effect” (%).
The record does not define 0% and 100%; most values in the screen are far below 50% and negative numbers occur (in some assays of this library far below -100).
Compounds were drawn at random from those tested, without regard to their results.

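Whole-cell assay for inhibitors of Mycobacterium tuberculosis growth, labelled Cornell in the record; the read-out is not stated. The concentration is filed as 10 mM, unlikely as a test dose, so the dose is not known. The record gives no direction; compounds strong in two other growth screens of this library score well above the rest, so higher reads as stronger inhibition. Of about 53,000 compounds tested this way, about 900 (1.7%) reached 50% or more in at least one test.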

Compound | percent effect
[H][C@@]12COC[C@]1(c1nnc(C3CC3)o1)CN(C(=O)c1ocnc1C)C2 | 33.54
O[C@H]1CCN(CCCOc2ccccc2F)C[C@@]12CCCO2 | 8.819
CNC(=O)CN1CCOCC12CCN(CCc1ccccc1)CC2.O=C(O)C(F)(F)F.O=C(O)C(F)(F)F | 12.25
CCc1ncncc1C(=O)N1CCN(Cc2ccco2)CC1 | 2.317
CCc1ccccc1NC(=O)C1CN(C(C)=O)C1 | -67.31
Cc1cccc(C2CC(=O)Nc3c2c(=O)[nH]n3C(C)C)c1 (configuration not stated) | -11.14
CCOC(=O)Cc1csc(NC(=O)c2cc3n(n2)CCCO3)n1 | 25.55
Cc1cc(N(C)Cc2cc(C(C)(C)C)n[nH]2)nc(-c2cccnc2)n1 | -32.63
Cc1n[nH]c(C)c1NC(=O)CN1CCc2c(nc(C3CC3)n2C)C1 | -10.95
N#Cc1cccnc1N1CCN(C(=O)c2cccs2)CC1 | 17.65
Cc1cccc(C(C(=O)NCC2(O)CCCCC2)N(C)C)c1 (configuration not stated) | 9.938
C[C@@H]1CN(C2(C(=O)N3CCSCC3)Cc3ccccc3C2)C[C@H](C)O1 | -23.71
CCc1nc(C2CCCN2Cc2cc(=O)n(C)c(=O)n2C)no1 (configuration not stated) | 7.016
CC(C)NC(=O)[C@@H]1C[C@H](N)CN1C(=O)c1cc2c([nH]c1=O)CCCC2 | -4.737
CNc1cc(N2CCCC2CNCc2c[nH]nc2C(C)(C)C)ncn1 (configuration not stated) | 14.93
[H][C@@]12C[C@H](C(=O)NCC3CC3)[C@@]([H])(CN(C(=O)NCc3ccccc3)C1)O2 | 11.69
Cc1ccccc1CN1CCC(NCC2CNc3ccnn3C2)CC1 (configuration not stated) | 54.71
CC(C)(CN1CCC(Cc2cccc(C(=O)O)c2)C1)N1CCOCC1 (configuration not stated) | -5.83
N#CCCCOc1cccnc1NC(=O)CCC1CCCC1 | 19.73
CC(NCc1ccccc1O)c1ccc(-n2ccnc2)cc1 (configuration not stated) | 1.394
CCN1CCN(C(=O)NCc2cccnc2-n2cccn2)CC1 | -23.25
Cc1cccc(NC(=O)C2CCc3ccccc3N2)c1.Cl (configuration not stated) | 44.23
CC(SCCC(=O)NC(N)=O)c1c(F)cccc1F (configuration not stated) | 11.32
CCCc1nnsc1C(=O)NCC1CCN(S(C)(=O)=O)CC1 | 1.984
COCCN1CCN(c2nc(C3CCCC3)nc3c2cnn3C)CC1 | -22.27
NS(=O)(=O)c1cccnc1NCc1ccco1 | 9.166
O=C(CN(Cc1cccs1)C1CCS(=O)(=O)C1)NCC1CCCCC1 (configuration not stated) | 20.06
CC(=O)N1CCN(C(=O)c2ccc(-c3cccc(C)c3)[nH]c2=O)CC1 | 3.451
CC(C)Nc1cc(-c2c[nH]nc2C2CCN(C(=O)C3CCC3)C2)ccn1 (configuration not stated) | 58.28
CCN(CC)c1ncc2c(c1C(=O)O)CCN(C1CCOC1)C2.O=C(O)C(F)(F)F (configuration not stated) | 0.04353
O=C(c1ccncn1)N1CCC[C@]2(C[C@@H](OCC3CC3)CO2)C1 | -33.22
COCCC(=O)N1CCC2(CCN(Cc3ccc(C)cc3)CC2)C1.O=C(O)C(F)(F)F | 18.57
Cc1nnc2n1CCN(C(=O)c1cnc(C3CC3)s1)C2 | -14.73
CCN1CCN(Cc2c(C3CCCC3)[nH]c3ncccc23)CC1 | 74.68
c1csc(-c2nc(CNC3CCc4ncnn4C3)co2)c1 (configuration not stated) | 1.466
CC(NC(=O)N1CCC2(C1)OCCO2)c1cccc(Cl)c1 (configuration not stated) | -2.467
O=C(Nc1ccc(Cl)cn1)c1cncc(C2CCNCC2)n1 | 12.42
Cc1cc(N[C@H]2CCCC[C@@H]2O)n2nccc2n1 | -29.86
Cc1nc(C)n(CC2CN(CCCOc3ccccc3)CCO2)n1 (configuration not stated) | -5.331
CN(CC(=O)N(C)C(c1ccc(Cl)cc1)c1cccnc1)C1CC1 (configuration not stated) | 17.23
O=C(NCCc1c[nH]c2ccccc12)C1CCC(Cn2cnnn2)CC1 (configuration not stated) | -16.07
C[C@@H]1C[C@H](C(F)(F)F)n2nc(C3CCN(C(=O)C(C)(C)C)CC3)cc2N1 | 6.72
O=C(O)C(F)(F)F.[H][C@@]12OCCC[C@]1([H])N(S(=O)(=O)CCC)C[C@@H]2N(C)Cc1ccco1 | 22.99
COc1ccc(N2CCN(C(=O)CCc3n[nH]c(C)n3)CC2=O)cc1 | -13.68
c1csc(-c2cc(CN3CCN(c4cnccn4)CC3)no2)c1 | 27.44
COc1cc2c(cc1OC)CCN(C(=O)Cn1nc(C)cc1C)CC2 | -8.748
Cc1csc(NC(=O)CN(C)CC2CCCN2c2cccnn2)n1 (configuration not stated) | 29.9
CC1CCC(NC(=O)Nc2ccc(CC(=O)N(C)C)cc2)CC1 (configuration not stated) | -5.318
CNc1ncccc1CN1CCN(C)CC(C(=O)N(C)C)C1 (configuration not stated) | -35.79
CCOCCn1nc(C)cc1C(=O)N1C[C@@H](C)[C@](O)(C2CC2)C1 | -2.373
[H][C@@]12COC[C@@H](CC(=O)N3CCCC3)[C@]1([H])CN(Cc1ccncc1)C2 | -24.04
COCC1CN(S(=O)(=O)N(C)C)Cc2cnn(CC3CCCC3)c21.O=C(O)C(F)(F)F (configuration not stated) | 3.613
Cc1cc(N2CCN(C(=O)c3cc(Cl)c[nH]3)CC2)nc(N)n1 | 33.94
O=C(O)C(F)(F)F.[H][C@]12CCC[C@@H](CNc3nccn3C)[C@@]1([H])CN(CC1CC1)C2 | 19.61
O=C(c1ncccc1O)N1CCc2c(ncnc2N2CCOCC2)C1 | 2.781
Cc1ccc(C(C(=O)NCCc2nc(C)cc(=O)[nH]2)N(C)C)cc1 (configuration not stated) | 10.28
O=C(O)C(F)(F)F.O=C(O)C(F)(F)F.[H][C@@]12OCCN(Cc3ccncc3)[C@@]1([H])CC[C@H]2OCC1CCCC1 | 11.34
CCN(C(=O)c1cccc2c1OCO2)c1ccccc1 | -6.429
O=C(NCCCNC(=O)C1CCC1)NCCn1cccc1 | 11.79
O=C(O)C(F)(F)F.O=C(O)C(F)(F)F.c1csc(CN2CCOCC3(CCN(C4CCOCC4)C3)C2)n1 (configuration not stated) | -7.989
O=C(NC1CC1)c1cc2c(s1)CCN2C(=O)C1CC1 | -4.707
CCc1ccc(CN2CCC3(CC2)CC(N2CCN(C)CC2)CO3)cc1.O=C(O)C(F)(F)F (configuration not stated) | 22.36
O=C(C1CCCO1)N1CCCn2c(nnc2Cn2cccn2)C1 (configuration not stated) | 22.83
CC(=O)NCC(=O)Nc1cc(C)n(-c2ccc(Cl)cc2Cl)n1 | -11.04
O=C(O)C(F)(F)F.O=C(O)C(F)(F)F.O=C(O)C(F)(F)F.c1ccc(CN2CCc3c(COCC4CC4)cncc3C2)nc1 | 1.795
CC(C)NC(=O)N1C[C@@H](F)[C@@H](OCc2nc3ccccc3o2)C1 | 6.875
[H][C@]12CCN(C(=O)c3cc(C)oc3C)C[C@@]1([H])OCCN(S(C)(=O)=O)C2 | -2.198
CC(C)(C)CCCC(=O)NS(=O)(=O)CC1CC1 | -18.66
CN(c1ncnc2ccccc12)C1CCCN(c2cccnn2)C1 (configuration not stated) | 29.62
Cc1ncc(CN2CCN(c3ccc4nncn4n3)C(C)C2)s1 (configuration not stated) | -60.87
O=C(Cc1ccsc1)N1CCn2cc(Cn3cncn3)nc2C1 | 11.32
CC(C)CCC(C)NC(=O)CN1C=Nc2ccccc2S1(=O)=O (configuration not stated) | 19.81
CC(C)(N)c1nc(C(F)F)cc(=O)[nH]1.Cl | -23.51
O=C(NCc1cc(=O)n2c(n1)CN(CC1CC1)CCC2)c1ccsc1.O=C(O)C(F)(F)F | -23.97
Cc1nccn1-c1cc(CNC(=O)C2CCC(=O)N2)ccn1 (configuration not stated) | 8.634
CCOc1ccc(C(=O)N(Cc2cnn(C)c2)C(C)C)cc1 | 4.183
Cc1[nH]nc(CCC(=O)NCC2CCN(C3CCCCC3)C2)c1C (configuration not stated) | 12.47
Cc1nc(CNCC2Cn3nncc3CO2)cs1.O=C(O)C(F)(F)F (configuration not stated) | -8.566
CC(=O)Nc1ccc(CCC2(NC(=O)C3CCCO3)CCCCC2)cn1 (configuration not stated) | 6.838
COc1ccc(OCC2CCCN(c3nc(CO)cs3)C2)cc1 (configuration not stated) | 21.07
COc1ccc(C(O)CNc2c(C#N)c(=O)n(C)c(=O)n2C)cc1 (configuration not stated) | -10.53
COCc1nc(C2CC2)nn1-c1ccccc1Cl | 24.98

The last 10 entries again:

- CC(C)(N)c1nc(C(F)F)cc(=O)[nH]1.Cl : -23.51%
- O=C(NCc1cc(=O)n2c(n1)CN(CC1CC1)CCC2)c1ccsc1.O=C(O)C(F)(F)F : -23.97%
- Cc1nccn1-c1cc(CNC(=O)C2CCC(=O)N2)ccn1 (configuration not stated) : 8.634%
- CCOc1ccc(C(=O)N(Cc2cnn(C)c2)C(C)C)cc1 : 4.183%
- Cc1[nH]nc(CCC(=O)NCC2CCN(C3CCCCC3)C2)c1C (configuration not stated) : 12.47%
- Cc1nc(CNCC2Cn3nncc3CO2)cs1.O=C(O)C(F)(F)F (configuration not stated) : -8.566%
- CC(=O)Nc1ccc(CCC2(NC(=O)C3CCCO3)CCCCC2)cn1 (configuration not stated) : 6.838%
- COc1ccc(OCC2CCCN(c3nc(CO)cs3)C2)cc1 (configuration not stated) : 21.07%
- COc1ccc(C(O)CNc2c(C#N)c(=O)n(C)c(=O)n2C)cc1 (configuration not stated) : -10.53%
- COCc1nc(C2CC2)nn1-c1ccccc1Cl : 24.98%